From patent US20150056162A1
These are yes or no findings as the source states them, for the method shown. Some entries that bind do so weakly or less than the wild type.

T1: IL-13Rα2, biotinylated (human) (UniProt Q14627)
T1 sequence (biotinylated (site not stated), looked up): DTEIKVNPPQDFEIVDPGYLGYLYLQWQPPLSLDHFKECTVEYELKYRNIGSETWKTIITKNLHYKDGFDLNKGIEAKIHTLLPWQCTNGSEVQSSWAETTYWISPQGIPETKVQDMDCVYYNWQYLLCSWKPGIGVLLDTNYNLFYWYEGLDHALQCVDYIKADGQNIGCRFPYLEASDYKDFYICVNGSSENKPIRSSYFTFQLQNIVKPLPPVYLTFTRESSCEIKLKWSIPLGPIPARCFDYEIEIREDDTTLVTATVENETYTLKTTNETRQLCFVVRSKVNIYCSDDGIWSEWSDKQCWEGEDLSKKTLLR


How the values were obtained:
[1] = target: T1, IL-13Rα2, biotinylated (human); assay: SPR, biotinylated receptor captured on SA chip (FIG. 2A)
[2] = target: T1, IL-13Rα2, biotinylated (human); assay: SPR (FIG. 5b)

binding [1]	binding [2]	Binder
binds	–	IL-13 variant D7 (ligand) PGPVPPSTAARELIEELFNITQNQKAPLCNGSMVWSINLTAGMYCAALESLINVSGCSAIEKTKRMLSGFCPHKVSAGQFPSLHVKKTRIEVAQFVKDLLIHLRKLFKEGQFNHHHHHH
–	binds	IL-13 variant DN (ligand) PGPVPPSTAVRALIEELINITQNQKAPLCNGSMVWSINRTAGMYCAALESLINVSGCSAIEKTQDMLSGFCPHKVSAGQFSSLHVRSSKIEVAQFVKDLLFHLRTLFREGQFNHHHHHH
